## Primary screen of a compound library

By UniProt entry, the sequences of proteins in these tests, tags left out.
UniProt E9BF75, entry or part of it: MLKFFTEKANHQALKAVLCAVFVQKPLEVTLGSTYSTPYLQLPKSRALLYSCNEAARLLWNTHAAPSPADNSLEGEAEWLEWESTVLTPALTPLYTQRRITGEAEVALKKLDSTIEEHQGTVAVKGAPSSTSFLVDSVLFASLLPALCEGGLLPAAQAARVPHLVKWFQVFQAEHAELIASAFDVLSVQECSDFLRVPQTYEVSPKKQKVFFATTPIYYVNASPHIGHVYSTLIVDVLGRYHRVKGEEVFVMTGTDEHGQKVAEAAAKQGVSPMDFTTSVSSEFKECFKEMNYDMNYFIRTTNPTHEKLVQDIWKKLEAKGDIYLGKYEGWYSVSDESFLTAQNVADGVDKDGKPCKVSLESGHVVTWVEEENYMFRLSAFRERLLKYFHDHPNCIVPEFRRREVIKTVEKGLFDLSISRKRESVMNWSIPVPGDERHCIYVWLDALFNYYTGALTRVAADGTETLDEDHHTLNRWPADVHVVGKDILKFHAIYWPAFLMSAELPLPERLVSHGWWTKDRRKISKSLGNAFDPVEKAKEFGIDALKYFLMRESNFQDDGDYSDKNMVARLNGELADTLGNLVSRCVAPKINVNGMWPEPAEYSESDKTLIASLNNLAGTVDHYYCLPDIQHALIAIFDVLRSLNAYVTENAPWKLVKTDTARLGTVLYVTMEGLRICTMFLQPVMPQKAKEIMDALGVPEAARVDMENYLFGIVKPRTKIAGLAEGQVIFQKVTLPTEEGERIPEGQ

A: 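Primary screen of methionyl-tRNA synthetase; the read-out is not stated. Target: Methionyl-tRNA synthetase (putative), Leishmania donovani (UniProt E9BF75). The test concentration is not given. Values are per cent inhibition. About 68,000 compounds were tested under these conditions; 0.035% (about 24) showed 50% or more at least once.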
B: 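Assay on Mycobacterium tuberculosis, filed only as a heat shock assay from Cornell; the read-out is not stated. The concentration is filed as 10 mM, unlikely as a test dose, so the dose is not known. The record gives no direction; compounds that gave an IC50 in retests scored well above the rest, so higher reads as stronger inhibition. Of about 69,000 compounds tested this way, about 930 (1.4%) reached 50% or more in at least one test.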

All values are in %. The controls that fix the scale are not given in the record; negative values are as filed. This is an unselected part of the compounds tested. A dash means the value is not listed here; it may have been measured.

structure	A	B
CN(C)c1ncc(CNC(=O)Nc2ccc(C(F)(F)F)cc2)n1C	13.59	-27.67
COc1cc(F)c(NC(=O)N(C)Cc2cc(C)on2)cc1F	13.71	7.251
COc1ccc2c(c1)C1(CCNCC1)CC2NC1CC1.Cl.Cl (stereo not shown)	-	29.06
COc1cc(CNC(C)c2cccc(Cl)c2)cc(OC)c1OC (stereo not shown)	16.45	-17.75
CCOCCC(=O)N(C)Cc1noc(C(C)C)n1	1.773	8.087
CN(C)C(=O)N1CC(C(=O)NCC2CC2)C2(CCOCC2)C1 (stereo not shown)	3.636	1.116
FC(F)(F)C1CN(Cc2cccc(OCc3ccccn3)c2)CCO1 (stereo not shown)	4.45	-5.474
Cl.Fc1ccc(-c2cnc(C3CCCN3)cn2)cc1 (stereo not shown)	-	-5.205
O=C(CSc1ccccn1)N1CCC(OCc2cccnc2)CC1	15.6	-16.1
Cc1cccc(CN2CCc3ncnc(-c4ccsc4)c3CC2)n1	21.9	-
O=C(O)C(F)(F)F.O=C(O)C(F)(F)F.[H][C@]12CCC[C@@]1(COc1ccccn1)CN(Cc1cnn(C)c1)C2	-	-2.585
COc1cccc2c1OCC(CNC(=O)CCn1cnnn1)C2 (stereo not shown)	5.155	-12.87
CCc1cc(N2CCC(NCCc3nc(C)c(C)s3)CC2)nc(C)n1	22.29	-25.49
CN(C)c1ncc2c(O)nc(C3CCNCC3)cc2n1	18.1	-
COc1cccc2c1OCC(NC(=O)NC1CCN(C3CC3)CC1)C2 (stereo not shown)	19.72	-22.59
c1cc(-c2noc([C@@H]3CCCN3C3CCC3)n2)cc(N2CCCC2)n1	9.774	-22.33
Cc1ccc2cc(C(=O)N3CCC(O)(C(F)(F)F)CC3)ccc2n1	5.385	-7.258
CN1CCC(c2n[nH]c(=O)n2CC2CCCCC2)CC1	12.26	17.53
COCCCOc1ccc(C(=O)N(C)CCC(C)C)cn1	11.67	12.01
c1cnc(N2CCOCC3(CNCCO3)C2)nc1 (stereo not shown)	7.143	-10.01
[H][C@@]12CN(C(=O)c3cscn3)C[C@]1([H])OCCN2Cc1csc(C)n1	-	1.808
CN(CCCO)Cc1cc(Cl)ccc1OCC(O)CN1CCCCCC1 (stereo not shown)	29.72	44.14
CCc1nc2c(c(C)c(C)n2Cc2cccnc2)c(N)c1C	5.362	-6.548
COCc1cccc(NC(C(N)=O)c2ccc(Br)cc2)c1 (stereo not shown)	5.645	7.254
CCn1nc(C)c(NC(=O)CN2CCC(c3ccccc3Cl)C2)c1C (stereo not shown)	8.517	-26.71
CN(C)CCCNCCC(c1ccccc1)C1CCOC(C)(C)C1.O=C(O)C(=O)O (stereo not shown)	-	21.84
[H][C@@]12CCN(C(=O)C3CCOCC3)[C@]1([H])CCC(=O)N2CCOC	-	-12.12
CC(C)Cc1noc(CN2CCN(C(=O)c3ccco3)CC2)n1	13.5	-20.35
Br.Cc1ccc(OCCSC2=NCCN2)cc1	-	-2.714
[H][C@]12CN(Cc3cccnc3)C(=O)[C@@]1([H])CN(C1CCOCC1)C2	-	9.132
O=C(CCCc1cn[nH]c1)N1C[C@H](CO)C[C@H](CN2CCCC2)C1	8.533	4.471
CCc1c(C)nc2cc(C3CCN(Cc4ccccc4F)C3)nn2c1O (stereo not shown)	-4.452	2.432
CC(C)(C)CN[C@@H]1CO[C@H](CNC(=O)Nc2ccccc2)[C@H]1O	10.51	-0.5749
Cc1nc[nH]c1-c1nccn1-c1ccc(C(N)=O)c(N2CCCC2)c1	1.613	-6.652
O=C(NCCOc1ncc(Cl)cc1Cl)c1ccoc1	13.71	-21.34
CCS(=O)(=O)N1C[C@@H]2CN(Cc3cccs3)CCO[C@@H]2C1	5.797	-
CC(NC(=O)Nc1nccs1)c1cccnc1 (stereo not shown)	8.065	-10.47
COc1cccc(OCCNCc2ccccc2)c1	9.657	-
Cc1cc(C(=O)N(C)Cc2cccs2)nc(N2CCOCC2)n1	13.82	3.763
CS(=O)(=O)N1C[C@@H](C(=O)Nc2cnccn2)C[C@H]2OCC[C@H]21	-18.48	-
Cc1ccc(N2C[C@@H]3CCCO[C@@H]3[C@H](N3CCCC3)C2)nn1	6.884	-
Cc1cc2cccc(C(=O)N3CC[C@@H](N)[C@H](O)C3)c2o1	14.07	-26.62
O=C1CC(c2cccs2)c2snc(C(=O)O)c2N1 (stereo not shown)	11.5	1.68
CCCc1nc(CN2CCCCC2Cn2cncn2)cs1 (stereo not shown)	17.38	-9.972
O=C(Cn1nc(-c2ccc(F)cc2)oc1=O)Nc1ccccc1	6.122	1.338
Cc1ccc2c(n1)N(Cc1cccnc1)CCN(C1CCOCC1)C2	-2.667	-
CCOC(=O)C(C)NC(=O)CCSc1ccc(F)cc1 (stereo not shown)	10.29	-13
Cc1cscc1C(=O)Nc1cncnc1N(C)C	7.143	-21.95
CCc1nc(CCNC(=O)Nc2ccc(C(=O)NC)cc2)cs1	13.26	5.12
CN(C)C(=O)c1sc2ncccc2c1C1CNCCO1 (stereo not shown)	13.83	-
Cn1cc(C(=O)N2CC[C@@]3(O)CCN(C(=O)C4CCC4)C[C@H]3C2)cn1	1.031	-
O=C(O)C(F)(F)F.[H][C@@]12CCCO[C@]1([H])[C@H](NC(=O)c1cscn1)CN2	-	-38.25

The last 4 entries again:

structure	A	B
CCc1nc(CCNC(=O)Nc2ccc(C(=O)NC)cc2)cs1	13.26	5.12
CN(C)C(=O)c1sc2ncccc2c1C1CNCCO1 (stereo not shown)	13.83	-
Cn1cc(C(=O)N2CC[C@@]3(O)CCN(C(=O)C4CCC4)C[C@H]3C2)cn1	1.031	-
O=C(O)C(F)(F)F.[H][C@@]12CCCO[C@]1([H])[C@H](NC(=O)c1cscn1)CN2	-	-38.25

Source: ChEMBL document CHEMBL3988442, “University of Dundee, Small-Polar-MMV Screening Library” (2021).